# Laboratory results from the supplement of paper PMC6411743.
# ± gives the standard deviation of the averaged measurements. This is a selection; strong and weak results do not stand in their true shares.
# Experiments:
# Test in all cases: NP40-soluble protein abundance relative to vehicle (solubility fold change) (ratio); higher = more soluble protein in presence of AMP-PNP
# CDKAL1 = molecular target: T1, CDKAL1 (UniProt Q5VV42)
# T1 sequence (whole entry): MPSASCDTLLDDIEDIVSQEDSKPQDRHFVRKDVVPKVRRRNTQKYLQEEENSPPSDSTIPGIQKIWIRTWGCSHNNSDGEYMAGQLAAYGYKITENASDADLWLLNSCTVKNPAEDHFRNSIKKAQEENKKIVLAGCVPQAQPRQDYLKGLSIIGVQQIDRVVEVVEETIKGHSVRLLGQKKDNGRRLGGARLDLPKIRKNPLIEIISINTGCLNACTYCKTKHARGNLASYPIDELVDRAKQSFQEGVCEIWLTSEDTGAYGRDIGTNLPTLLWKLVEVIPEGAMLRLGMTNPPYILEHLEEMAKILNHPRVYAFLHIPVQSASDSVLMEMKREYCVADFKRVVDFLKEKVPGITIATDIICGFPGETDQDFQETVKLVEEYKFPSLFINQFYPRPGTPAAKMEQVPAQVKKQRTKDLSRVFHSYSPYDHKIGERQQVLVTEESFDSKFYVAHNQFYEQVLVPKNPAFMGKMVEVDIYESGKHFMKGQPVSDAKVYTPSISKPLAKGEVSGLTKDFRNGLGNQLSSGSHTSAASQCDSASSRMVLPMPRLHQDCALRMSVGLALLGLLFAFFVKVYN
# Outline: (§1)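 Data come from three independent experiments in which Dounce-homogenised Jurkat crude lysate was treated at eight concentrations from 0.1 to 10 mM. Treatment ran 10 min at room temperature and then 3 min at 37 °C, after which 0.8% NP40 and benzonase were added for 60 min at 4 °C before ultracentrifugation. The supernatant underwent TMT labelling and LC-MS/MS, and vsn-normalised intensities were expressed as fold change against the detergent-processed vehicle in each replicate.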
# FAHD1 = molecular target: T2, FAHD1 (UniProt Q6P587)
# T2 sequence (whole entry): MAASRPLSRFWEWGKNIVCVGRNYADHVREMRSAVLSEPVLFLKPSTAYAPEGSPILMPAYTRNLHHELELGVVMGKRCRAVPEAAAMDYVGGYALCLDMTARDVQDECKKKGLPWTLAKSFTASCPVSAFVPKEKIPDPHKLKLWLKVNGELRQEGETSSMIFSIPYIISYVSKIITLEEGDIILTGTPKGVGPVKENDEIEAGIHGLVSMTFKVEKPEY
# Outline: as §1
# NCR3LG1 = molecular target: T3, NCR3LG1 (UniProt Q68D85)
# T3 sequence (whole entry): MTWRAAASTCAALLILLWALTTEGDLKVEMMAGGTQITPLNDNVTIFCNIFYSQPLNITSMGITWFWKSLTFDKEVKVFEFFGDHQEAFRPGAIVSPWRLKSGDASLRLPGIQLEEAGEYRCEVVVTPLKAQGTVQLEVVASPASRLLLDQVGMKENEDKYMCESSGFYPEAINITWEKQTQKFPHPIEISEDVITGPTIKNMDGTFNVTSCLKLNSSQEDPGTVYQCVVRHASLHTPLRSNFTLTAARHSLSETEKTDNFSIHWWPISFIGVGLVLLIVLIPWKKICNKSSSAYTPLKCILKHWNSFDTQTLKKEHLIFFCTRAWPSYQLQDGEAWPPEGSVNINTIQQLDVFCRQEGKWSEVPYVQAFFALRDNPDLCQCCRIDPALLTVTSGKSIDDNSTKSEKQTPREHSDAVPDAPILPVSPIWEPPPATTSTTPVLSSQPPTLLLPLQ
# Outline: as §1
# NUFIP2 = molecular target: T4, NUFIP2 (UniProt Q7Z417)
# T4 sequence (whole entry): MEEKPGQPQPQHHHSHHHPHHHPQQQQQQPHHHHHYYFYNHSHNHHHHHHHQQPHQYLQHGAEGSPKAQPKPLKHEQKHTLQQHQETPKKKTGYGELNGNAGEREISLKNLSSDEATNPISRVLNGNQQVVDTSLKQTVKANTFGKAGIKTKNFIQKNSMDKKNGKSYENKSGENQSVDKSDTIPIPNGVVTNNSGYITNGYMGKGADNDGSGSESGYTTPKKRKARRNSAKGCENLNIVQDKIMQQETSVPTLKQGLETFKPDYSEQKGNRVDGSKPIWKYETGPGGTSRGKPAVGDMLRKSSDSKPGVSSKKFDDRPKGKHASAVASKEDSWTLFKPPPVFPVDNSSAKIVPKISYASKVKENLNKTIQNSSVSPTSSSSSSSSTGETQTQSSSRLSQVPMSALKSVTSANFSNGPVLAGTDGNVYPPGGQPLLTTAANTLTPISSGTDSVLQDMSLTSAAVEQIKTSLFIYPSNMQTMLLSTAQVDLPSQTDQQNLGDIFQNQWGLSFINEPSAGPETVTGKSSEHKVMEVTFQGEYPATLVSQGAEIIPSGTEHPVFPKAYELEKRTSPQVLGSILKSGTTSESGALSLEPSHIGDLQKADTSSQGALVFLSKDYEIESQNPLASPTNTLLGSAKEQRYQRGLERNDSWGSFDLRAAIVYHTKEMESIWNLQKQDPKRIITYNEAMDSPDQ
# Outline: as §1
# PRPF38B = molecular target: T5, PRPF38B (UniProt Q5VTL8)
# T5 sequence (whole entry): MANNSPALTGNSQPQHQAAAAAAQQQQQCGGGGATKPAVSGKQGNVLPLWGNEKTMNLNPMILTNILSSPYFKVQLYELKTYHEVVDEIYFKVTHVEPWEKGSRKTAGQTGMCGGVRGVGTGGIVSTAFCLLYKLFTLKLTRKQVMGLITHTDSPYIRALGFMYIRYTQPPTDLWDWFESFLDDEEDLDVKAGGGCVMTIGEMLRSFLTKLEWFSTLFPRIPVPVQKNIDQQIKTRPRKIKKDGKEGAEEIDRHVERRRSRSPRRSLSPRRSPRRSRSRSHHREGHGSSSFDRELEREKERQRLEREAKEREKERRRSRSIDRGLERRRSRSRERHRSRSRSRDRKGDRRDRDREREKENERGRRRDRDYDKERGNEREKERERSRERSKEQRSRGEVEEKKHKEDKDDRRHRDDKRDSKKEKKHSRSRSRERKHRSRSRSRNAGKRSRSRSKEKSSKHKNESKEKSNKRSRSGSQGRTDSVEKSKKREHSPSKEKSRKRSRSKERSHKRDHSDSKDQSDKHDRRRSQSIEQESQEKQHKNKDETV
# Outline: as §1
compound,measurement,setting,value
Nc1ncnc2c1ncn2[C@@H]1O[C@H](COP(=O)(O)OP(=O)(O)NP(=O)(O)O)[C@@H](O)[C@H]1O [adenylyl imidodiphosphate],NP40-soluble protein abundance,CDKAL1; concentration: 1mM,0.9774 ± 0.0092
same,NP40-soluble protein abundance,CDKAL1; concentration: 2mM,0.924 ± 0.07
same,NP40-soluble protein abundance,CDKAL1; concentration: 4mM,0.9696 ± 0.0065
same,NP40-soluble protein abundance,CDKAL1; concentration: 6mM,0.937 ± 0.012
same,NP40-soluble protein abundance,CDKAL1; concentration: 8mM,0.937 ± 0.0095
same,NP40-soluble protein abundance,CDKAL1; concentration: 10mM,0.918 ± 0.023
same,NP40-soluble protein abundance,FAHD1; concentration: 1mM,0.967 ± 0.024
same,NP40-soluble protein abundance,FAHD1; concentration: 2mM,0.969 ± 0.011
same,NP40-soluble protein abundance,FAHD1; concentration: 4mM,1.01 ± 0.034
same,NP40-soluble protein abundance,FAHD1; concentration: 6mM,0.992 ± 0.044
same,NP40-soluble protein abundance,FAHD1; concentration: 8mM,1.03 ± 0.022
same,NP40-soluble protein abundance,FAHD1; concentration: 10mM,1 ± 0.039
same,NP40-soluble protein abundance,NCR3LG1; concentration: 1mM,1.03 ± 0.077
same,NP40-soluble protein abundance,NCR3LG1; concentration: 2mM,1.031 ± 0.009
same,NP40-soluble protein abundance,NCR3LG1; concentration: 4mM,1.04 ± 0.035
same,NP40-soluble protein abundance,NCR3LG1; concentration: 6mM,0.984 ± 0.021
same,NP40-soluble protein abundance,NCR3LG1; concentration: 8mM,0.982 ± 0.011
same,NP40-soluble protein abundance,NCR3LG1; concentration: 10mM,0.992 ± 0.042
same,NP40-soluble protein abundance,NUFIP2; concentration: 1mM,1.11 ± 0.029
same,NP40-soluble protein abundance,NUFIP2; concentration: 2mM,1.22 ± 0.066
same,NP40-soluble protein abundance,NUFIP2; concentration: 4mM,1.24 ± 0.023
same,NP40-soluble protein abundance,NUFIP2; concentration: 6mM,1.26 ± 0.14
same,NP40-soluble protein abundance,NUFIP2; concentration: 8mM,1.27 ± 0.14
same,NP40-soluble protein abundance,NUFIP2; concentration: 10mM,1.37 ± 0.12
same,NP40-soluble protein abundance,PRPF38B; concentration: 1mM,1.03 ± 0.033
same,NP40-soluble protein abundance,PRPF38B; concentration: 2mM,1.03 ± 0.074
same,NP40-soluble protein abundance,PRPF38B; concentration: 4mM,1.03 ± 0.08
same,NP40-soluble protein abundance,PRPF38B; concentration: 6mM,1.04 ± 0.049
same,NP40-soluble protein abundance,PRPF38B; concentration: 8mM,1.06 ± 0.029
same,NP40-soluble protein abundance,PRPF38B; concentration: 10mM,1.11 ± 0.09

# Reprinted at random: 2 entries already listed, in no set order.
compound,measurement,setting,value
Nc1ncnc2c1ncn2[C@@H]1O[C@H](COP(=O)(O)OP(=O)(O)NP(=O)(O)O)[C@@H](O)[C@H]1O [adenylyl imidodiphosphate],NP40-soluble protein abundance,PRPF38B; concentration: 8mM,1.06 ± 0.029
same,NP40-soluble protein abundance,NCR3LG1; concentration: 8mM,0.982 ± 0.011
